Values joined by “and” are separate entries in the source; they are usually repeats but may differ in a detail not shown here. Equal values may be shown once. The list shows a part of the results.
What was measured:
Assay in all cases: protein microarray (ProtoArray v5.0), streptavidin-Alexa Fluor 647
Conditions in all cases: 3'-biotin; 20 mM Tris (pH 7.5), 5 mM MgCl2, 100 mM KCl, 0.1% Tween-20, A/T-rich and random oligonucleotide blockers; temperature not stated; high values mean tight binding
[1] = tested on: cDNA clone MGC:39134 IMAGE:4892821 (human)
[2] = tested on: cDNA clone MGC:40177 IMAGE:5167345, complete cds (human)
[3] = tested on: cDNA clone MGC:40426 IMAGE:5178085, complete cds (human)
[4] = tested on: cDNA clone MGC:48448 IMAGE:5266019 (human)
[5] = tested on: cDNA clone MGC:52019 IMAGE:5188979 (human)
[6] = tested on: cDNA clone MGC:54300 IMAGE:6500495, complete cds (human)
[7] = tested on: cDNA clone MGC:5619 IMAGE:3462332, complete cds (human)
[8] = tested on: cDNA clone MGC:59959 IMAGE:4137660, complete cds (human)
[9] = tested on: cDNA clone MGC:64884 IMAGE:5194313 (human)
[10] = tested on: cDNA clone MGC:70358 IMAGE:5539182 (human)
[11] = tested on: cDNA clone MGC:71618 IMAGE:30347370 (human)
[12] = tested on: cDNA clone MGC:71981 IMAGE:30324263 (human)
[13] = tested on: cDNA clone MGC:8430 IMAGE:2821116 (human)
[14] = tested on: cDNA clone MGC:87051 IMAGE:5296643 (human)
[15] = tested on: cDNA clone MGC:87928 IMAGE:5104751 (human)
[16] = tested on: cDNA clone MGC:88809 IMAGE:6279986 (human)
[17] = tested on: cDNA clone MGC:90486 IMAGE:5755352 (human)
[18] = tested on: hypothetical LOC554201 (human)
[19] = tested on: in the protein list file (human)
[20] = tested on: juvenile (human)

GGGAGGCTGAGGCAGG [G4-1 biotinylated (PQS2)]
binding signal [1]: -0.334 z-score | binding signal [2]: -0.334 z-score | binding signal [3]: -0.312 z-score | binding signal [4]: -0.325 z-score | binding signal [5]: -0.328 z-score | binding signal [6]: -0.24 z-score | binding signal [7]: -0.286 z-score | binding signal [8]: -0.297 z-score | binding signal [9]: -0.321 z-score | binding signal [10]: -0.353 z-score | binding signal [11]: -0.311 z-score | binding signal [12]: -0.344 z-score | binding signal [13]: -0.346 z-score | binding signal [14]: -0.326 z-score | binding signal [15]: -0.347 z-score | binding signal [16]: -0.343 z-score | binding signal [17]: -0.286 z-score | binding signal [18]: -0.35 z-score | binding signal [19]: -0.335 z-score and -0.308 z-score | binding signal [20]: -0.343 z-score

Source: PMC5996148
